Test results as given in patent publication US20170298338.

Assays:
[1] = system: p50-T4 DNA ligase fusion (N-terminal p50) (Homo sapiens / Enterobacteria phage T4); assay: activity assay; details: blunt-end ligation at 75 C, agarose gel; purified recombinant protein
[2] = target: p50-Tth DNA ligase fusion (EE0217) (Homo sapiens / Thermus thermophilus) (UniProt P26996); assay: activity assay; details: blunt-end ligation at 75 C, agarose gel; purified recombinant protein; protein details: His10 leader, p50, glycine-rich linker

AATTCTCTTTAAATAAACCCAAGGTCTCAGATTTCATGCAGATTGTGTC (double strand) [EE0139/EE0140 49-bp blunt duplex]
activity on this sequence [1]: less active
activity on this sequence [2]: active

The exact form of at least one protein or probe is not confirmed. For some assays here: A weaker result is weaker than the reference pair of the same experiment.
